From EP3118613B1, “ELECTRIC COMPONENT WITH ORGANIC PART” (ACREO SWEDISH ICT AB, priority 2015, dated 2017)

Test system: xylem vascular system of roses
Assay: Uptake from aqueous solution and wire formation in the xylem of rose cuttings
Design: species or system Rosa floribunda
Conditions: 1 mg/ml aqueous solution, cut rose stem immersed
Experimental: We chose to use cuttings of Rosa floribunda (garden rose) as our model plant system. The lower part of a rose stem was cut and the fresh cross section was immersed in an aqueous PEDOT-S:H solution for 24-48 h (Fig. 7A), during which time the PEDOT-S:H solution was taken up into the xylem vascular channel and transported apically. The rose was taken from the solution and rinsed in water. The outer bark, cortex and phloem of the bottom part of the stem were then gently peeled off, exposing dark continuous lines along individual 20-100 µm wide xylem channels (Fig. 7B-D). These "wires" extended more than 5 cm along the stem. From optical and scanning electron microscope images of fresh and freeze-dried stems, we conclude that the PEDOT-S:H formed dense and homogenous wires occupying the entire xylem tubular channel. PEDOT-S:H is known to form hydrogels in aqueous-rich environments, in particular in the presence of divalent cations, and we assume that this is also the case for the wires established along the xylem channels of rose stems. The conductivity of PEDOT-S:H wires was measured using two Au probes applied into individual PEDOT-S:H xylem wires along the stem (Fig. 7D). From the linear fit of resistance versus distance between the contacts, we found electrical conductivity reading 0.13 S/cm with contact resistance ∼10 kΩ (Fig. 7E). […]

exo-EDOT-Thiophene-EDOT-alkoxylfonate [compound 1]
length of continuous wires along stem or petiole: at least 9 cm | length of continuous wires along stem or petiole (listed as ETE-S): more than 10 cm
